Here are results for three molecules from article doi:10.1101/2023.08.08.552343.

Chains of the proteins cited; added tags and fusions are not shown. Residues count along the entry.
UniProt Q9NXA8, residues 37-310: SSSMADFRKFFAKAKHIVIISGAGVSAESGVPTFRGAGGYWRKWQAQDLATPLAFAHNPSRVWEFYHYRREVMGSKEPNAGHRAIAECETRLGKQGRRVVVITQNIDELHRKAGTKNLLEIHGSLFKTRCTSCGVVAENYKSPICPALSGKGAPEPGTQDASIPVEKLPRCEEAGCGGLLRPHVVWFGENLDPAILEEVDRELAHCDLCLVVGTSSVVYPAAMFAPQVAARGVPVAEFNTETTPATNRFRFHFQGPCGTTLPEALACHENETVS
UniProt P31751: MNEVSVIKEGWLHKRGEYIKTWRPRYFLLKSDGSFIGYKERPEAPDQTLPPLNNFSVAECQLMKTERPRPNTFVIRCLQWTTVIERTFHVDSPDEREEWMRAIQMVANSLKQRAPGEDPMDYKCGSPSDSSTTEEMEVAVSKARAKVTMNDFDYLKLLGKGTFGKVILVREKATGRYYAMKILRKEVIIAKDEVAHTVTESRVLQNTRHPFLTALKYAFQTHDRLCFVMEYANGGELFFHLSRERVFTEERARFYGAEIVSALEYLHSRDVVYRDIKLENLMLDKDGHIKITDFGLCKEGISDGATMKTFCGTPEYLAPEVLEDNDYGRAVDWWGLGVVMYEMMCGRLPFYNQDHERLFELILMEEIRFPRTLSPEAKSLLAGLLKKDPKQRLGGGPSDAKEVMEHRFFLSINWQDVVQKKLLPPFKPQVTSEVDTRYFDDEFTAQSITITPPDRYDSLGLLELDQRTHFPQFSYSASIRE

These are yes or no findings as the source states them, for the method shown. For some of these results: In cells and extracts the contact can be indirect. Some results given as binding are weak or reduced against the parent protein; the word gives no strength. For some of these results: Where a sequence is shown, tags or fusion partners need not be part of it.

For assay [1], the target named is Sirtuin 5 (SIRT5) on the HuProt v3.1 human proteome array (human) (UniProt Q9NXA8). Briefly: peptide or protein array.
Assay [2] addresses T1, Synaptotagmin Like 1 (SYTL1) on the HuProt v3.1 human proteome array (human) (UniProt Q8IYJ3).
T1 sequence: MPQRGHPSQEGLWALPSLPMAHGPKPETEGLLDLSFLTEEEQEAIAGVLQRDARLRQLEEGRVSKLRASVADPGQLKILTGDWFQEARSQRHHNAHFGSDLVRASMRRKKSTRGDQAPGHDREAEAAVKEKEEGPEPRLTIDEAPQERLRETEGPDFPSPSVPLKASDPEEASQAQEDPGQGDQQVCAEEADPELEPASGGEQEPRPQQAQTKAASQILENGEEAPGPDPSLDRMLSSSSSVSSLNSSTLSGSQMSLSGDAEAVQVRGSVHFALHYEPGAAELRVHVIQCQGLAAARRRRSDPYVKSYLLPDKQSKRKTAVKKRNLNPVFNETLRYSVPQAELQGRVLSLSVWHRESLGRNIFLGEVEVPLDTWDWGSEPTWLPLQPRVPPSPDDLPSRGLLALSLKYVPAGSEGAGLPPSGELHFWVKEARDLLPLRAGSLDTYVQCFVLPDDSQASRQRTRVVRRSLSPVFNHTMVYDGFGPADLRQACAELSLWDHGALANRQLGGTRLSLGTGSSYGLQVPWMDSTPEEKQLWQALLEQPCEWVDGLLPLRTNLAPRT
Briefly: peptide or protein array.

Assay [3] has as its target EGFP-AKT2 (human) (UniProt P31751). As to the kind of experiment: co-IP.

With “recombinant AKT2 (from UniProt P31751 1-481) (enzyme)”, the binding entry in assay [1] and in assay [2] was “binds” throughout.

B1: Synaptotagmin Like 1 (SYTL1) found with AKT2 in the pulldown (protein, UniProt Q8IYJ3 1-562)
chain: MPQRGHPSQEGLWALPSLPMAHGPKPETEGLLDLSFLTEEEQEAIAGVLQRDARLRQLEEGRVSKLRASVADPGQLKILTGDWFQEARSQRHHNAHFGSDLVRASMRRKKSTRGDQAPGHDREAEAAVKEKEEGPEPRLTIDEAPQERLRETEGPDFPSPSVPLKASDPEEASQAQEDPGQGDQQVCAEEADPELEPASGGEQEPRPQQAQTKAASQILENGEEAPGPDPSLDRMLSSSSSVSSLNSSTLSGSQMSLSGDAEAVQVRGSVHFALHYEPGAAELRVHVIQCQGLAAARRRRSDPYVKSYLLPDKQSKRKTAVKKRNLNPVFNETLRYSVPQAELQGRVLSLSVWHRESLGRNIFLGEVEVPLDTWDWGSEPTWLPLQPRVPPSPDDLPSRGLLALSLKYVPAGSEGAGLPPSGELHFWVKEARDLLPLRAGSLDTYVQCFVLPDDSQASRQRTRVVRRSLSPVFNHTMVYDGFGPADLRQACAELSLWDHGALANRQLGGTRLSLGTGSSYGLQVPWMDSTPEEKQLWQALLEQPCEWVDGLLPLRTNLAPRT
With B1, the binding entry in assay [3] was “binds”.

B2: synaptosome-associated protein 23 (SNAP23) (protein, UniProt O00161 1-211)
chain: MDNLSSEEIQQRAHQITDESLESTRRILGLAIESQDAGIKTITMLDEQKEQLNRIEEGLDQINKDMRETEKTLTELNKCCGLCVCPCNRTKNFESGKAYKTTWGDGGENSPCNVVSKQPGPVTNGQLQQPTTGAASGGYIKRITNDAREDEMEENLTQVGSILGNLKDMALNIGNEIDAQNPQIKRITDKADTNRDRIDIANARAKKLIDS
As for B2, the binding entry in assay [3] was “binds”.
